{"source": "patent US7335671B2", "about": "“Arylcycloalkyl-substituted alkanoic acid derivatives, processes for their preparation and their use as pharmaceuticals” (Sanofi-Aventis Deutschland GmbH, priority 2003, dated 2008)", "note": "Some results were stated once for a whole list of compounds, not compound by compound.", "data": [{"target": "T1, PPARalpha (Homo sapiens, UniProt Q07869)", "T1 construct": "human PPARalpha receptor (amino acids S167-Y468); expressed in transfected cells; host or cells: HEK (human embryo kidney) cells, stably transfected; pcDNA3 vector, CMV promoter", "T1 sequence (Q07869 167-468)": "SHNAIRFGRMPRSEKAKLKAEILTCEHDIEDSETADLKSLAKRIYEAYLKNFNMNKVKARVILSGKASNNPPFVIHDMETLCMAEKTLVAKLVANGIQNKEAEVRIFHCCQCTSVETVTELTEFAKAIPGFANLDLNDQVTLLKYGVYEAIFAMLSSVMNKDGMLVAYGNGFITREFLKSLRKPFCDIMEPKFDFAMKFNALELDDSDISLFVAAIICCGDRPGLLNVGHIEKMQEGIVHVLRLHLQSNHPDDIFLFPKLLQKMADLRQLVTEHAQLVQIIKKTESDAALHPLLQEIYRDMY", "assay": "Cellular PPARalpha assay (stably transfected HEK luciferase reporter cell line)", "type": "cell-based", "details": "units printed in the value: nM to μM; read-out: PPARalpha EC50 values (range over the examples)", "method": "Determination of EC50 Values of PPAR agonists in the Cellular PPARalpha Assay\nThe potency of substances which bind to human PPARA and activate in an agonistic manner is analyzed using a stably transfected HEK cell line (HEK =human embryo kidney) which is referred to here as PPARalpha reporter cell line. It contains two genetic elements, a luciferase reporter element (pδM-GAL4-Luc-Zeo) and a PPARalpha fusion protein (GR-GAL4-humanPPARα-LBD) which mediates expression of the luciferase reporter element depending on a PPARalpha ligand. The stably and constitutively expressed fusion protein GR-GAL4-humanPPARalpha-LBD binds in the cell nucleus of the PPARalpha reporter cell line via the GAL4 protein portion to the GAL4 DNA binding motifs 5′-upstream of the luciferase reporter element which is integrated in the genome of the cell line. There is only little expression of the luciferase reporter gene without addition of a PPARalpha ligand if fatty acid-depleted fetal calf serum (cs-FCS) is used in the assay. PPARα ligands bind and activate the PPARα fusion protein and thereby bring about expression of the luciferase reporter gene. The luciferase which is formed can be detected by means of chemiluminescence via an appropriate substrate.\nThe PPARalpha reporter cell line was prepared in 2 stages. Firstly, the luciferase reporter element was constructed and stably transfected into HEK cells. For this purpose, five binding sites of the yeast transcription factor GAL4 (each 5′-CGGAGTACTGTCCTCCGAG-3′) (SEQ ID No. 1) were cloned in 5′-upstream of a 68 bp-long minimal MMTV promoter (Genbank Accession # V01 175). The minimal MMTV promoter section contains a CCAAT box and a TATA element in order to enable efficient transcription by RNA polymerase 11. The cloning and sequencing of the GAL4-MMTV construct took place in analogy to the description of Sambrook J. et. al. (Molecular cloning, Cold Spring Harbor Laboratory Press, 1989). Then the complete Photinus pyralis gene (Genbank Accession # M15077) was cloned in 3′-downstream of the GAL4-MMTV element. After sequencing, the luceriferase reporter element consisting of five GAL4 binding sites, MMTV promoter and luciferase gene was recloned into a plasmid which confers zeocin resistance in order to obtain the plasmid pδM-GAL4-Luc-Zeo. This vector was transfected into HEK cells in accordance with the statements in Ausubel, F. M. et al. (Current protocols in molecular biology, Vol. 1-3, John Wiley & Sons, Inc., 1995).\nIn a second step, the PPARalpha fusion protein (GR-GAL4-humanPPARalpha-LBD was introduced into the stable cell clone described. For this purpose, initially the cDNA coding for the N-terminal 76 amino acids of the glucocorticoid receptor (Genbank Accession # P04150) was linked to the cDNA section coding for amino acids 1-147 of the yeast transcription factor GAL4 (Genbank Accession # P04386). The cDNA of the ligand-binding domain of the human PPARalpha receptor (amino acids S167-Y468; Genbank Accession # S74349) was cloned in at the 3′-end of this GR-GAL4 construct. The fusion construct prepared in this way (GR-GAL4-humanPPARalpha-LBD) was recloned into the plasmid pcDNA3 (from Invitrogen) in order to enable constitutive expression therein by the cytomegalovirus promoter. This plasmid was linearized with a restriction endonuclease and stably transfected into the previously described cell clone containing the luciferase reporter element. The finished PPARalpha reporter cell line which contains a luciferase reporter element and constitutively expresses the PPARalpha fusion protein (GR-GAL4-human PPARalpha-LBD) was isolated by selection with zeocin (0.5 mg/ml) and G418 (0.5 mg/ml).\nThe activity of PPARalpha agonists is determined in a 3-day assay which is described below: […]", "units": {"EC50": "nM"}, "values": [{"smiles": "CCOC(CO[C@@H]1CCC[C@H](OCc2nc(-c3cccc(OC(F)(F)F)c3)oc2C)C1)C(=O)O", "note": "(stereo partly drawn) [Example 58, 2-Ethoxy-3-{(1R,3S)-3-[5-methyl-2-(3-trifluoromethoxyphenyl)oxazol-4-ylmethoxy]-cyclohexyloxy}propionic acid]", "EC50": "≥ 0.6"}, {"smiles": "CCOC(CO[C@@H]1CCC[C@H](OCc2nc(-c3ccccc3C(F)(F)F)oc2C)C1)C(=O)O", "note": "(stereo partly drawn) [Example 62, 2-Ethoxy-3-{(1R,3S)-3-[5-methyl-2-(2-trifluoromethylphenyl)oxazol4-ylmethoxy]-cyclohexyloxy}propionic acid]", "EC50": "≥ 0.6"}, {"smiles": "Cc1oc(-c2ccc3ccccc3c2)nc1CO[C@H]1CCC[C@@H](OC[C@@H](OCc2ccc(C(F)(F)F)cc2)C(=O)O)C1", "note": "[Example 80, (R)-3-[(1R,3S)-3-(5-Methyl-2-(2-naphthyl)oxazol-4-ylmethoxy)cyclohexyloxy]-2-(4-trifluoromethylbenzyloxy)propionic acid]", "EC50": "≥ 0.6"}, {"smiles": "COC(CO[C@@H]1CCC[C@H](OCc2nc(-c3ccc(C)cc3)oc2C)C1)C(=O)O", "note": "(stereo partly drawn) [Example 32, 2-Methoxy-3-{(1R,3S)-3-[5-methyl-2-(4-methylphenyl)oxazol-4-ylmethoxy]cyclo-hexyloxy}propionic acid]", "EC50": "≥ 0.6"}, {"smiles": "CCCOC(CO[C@@H]1CCC[C@H](OCc2nc(-c3ccccc3C(F)(F)F)oc2CC)C1)C(=O)O", "note": "(stereo partly drawn) [Example 55, 3-{(1R,3S)-3-[5-Ethyl-2-(2-trifluoromethylphenyl)oxazol-4-ylmethoxy]cyclohexyl-oxy}-2-propoxypropionic acid]", "EC50": "≥ 0.6"}, {"smiles": "CCOC(CO[C@@H]1CCC[C@H](OCc2nc(-c3ccc4ccccc4c3)oc2C)C1)C(=O)O", "note": "(stereo partly drawn) [Example 74, 2-Ethoxy-3-{(1R,3S)-3-[5-methyl-2-(2-naphthyl)oxazol-4-ylmethoxy]cyclohexyloxy}-propionic acid]", "EC50": "≥ 0.6"}, {"smiles": "CCOC(CO[C@@H]1CCC[C@H](OCc2nc(-c3ccc(C)cc3)oc2C)C1)C(=O)O", "note": "(stereo partly drawn) [Example 73, 2-Ethoxy-3-{(1R,3S)-3-[5-methyl-2-(4-methylphenyl)oxazol-4-ylmethoxy]cyclo-hexyloxy}propionic acid]", "EC50": "≥ 0.6"}, {"smiles": "Cc1cccc(-c2nc(CO[C@H]3CCC[C@@H](OCC(OCc4cccc(C(F)(F)F)c4)C(=O)O)C3)c(C)o2)c1", "note": "(stereo partly drawn) [Example 14, 3-[(1R,3S)-3-(5-Methyl-2-m-tolyloxazol-4-ylmethoxy)cyclohexyloxy]-2-(3-trifluoro-methylbenzyloxy)propanoic acid]", "EC50": "≥ 0.6"}, {"smiles": "Cc1ccc(-c2nc(CO[C@H]3CCC[C@@H](OCC(OCC(C)C)C(=O)O)C3)c(C)o2)cc1", "note": "(stereo partly drawn) [Example 87, 3-{(1R,3S)-3-[5-Methyl-2-(4-methylphenyl)oxazol-4-ylmethoxy]cyclohexyloxy}-2-isobutoxypropionic acid]", "EC50": "≥ 0.6"}, {"smiles": "Cc1cccc(-c2nc(CO[C@H]3CCC[C@@H](OCC(OCc4ccccc4C(F)(F)F)C(=O)O)C3)c(C)o2)c1", "note": "(stereo partly drawn) [Example 19, 3-[(1R,3S)-3-(5-Methyl-2-m-tolyloxazol-4-ylmethoxy)cyclohexyloxy]-2-(2-trifluoromethylbenzyloxy)propanoic acid]", "EC50": "≥ 0.6"}, {"smiles": "CCOC(CO[C@@H]1CCC[C@H](OCc2nc(-c3cccc(C)c3)oc2C)C1)C(=O)O", "note": "(stereo partly drawn) [Example 71, 2-Ethoxy-3-{(1R,3S)-3-[5-methyl-2-(3-methylphenyl)oxazol-4-ylmethoxy]cyclo-hexyloxy}propionic acid]", "EC50": "≥ 0.6"}, {"smiles": "Cc1oc(-c2ccc(C(C)C)cc2)nc1CO[C@H]1CCC[C@@H](OCC(OCC(C)C)C(=O)O)C1", "note": "(stereo partly drawn) [Example 88, 3-{(1R,3S)-3-[5-Methyl-2-(4-isopropylphenyl)oxazol-4-ylmethoxy]cyclohexyloxy}-2-isobutoxypropionic acid]", "EC50": "≥ 0.6"}, {"smiles": "Cc1cccc(-c2nc(CO[C@H]3CCC[C@@H](OCC(OCc4ccccc4)C(=O)O)C3)c(C)o2)c1", "note": "(stereo partly drawn) [Example 27, 3-[(1R,3S)-3-(5-Methyl-2-m-tolyloxazol-4-ylmethoxy)cyclohexyloxy]-2-benzyloxy-propionic acid]", "EC50": "≥ 0.6"}, {"smiles": "Cc1oc(-c2cccc(C(F)(F)F)c2)nc1CO[C@H]1CCC[C@@H](OCC(OCC(C)C)C(=O)O)C1", "note": "(stereo partly drawn) [Example 85, 3-{(1R,3S)-3-[5-Methyl-2-(3-trifluoromethylphenyl)oxazol-4-ylmethoxy]cyclohexyl-oxy}-2-isobutoxypropionic acid]", "EC50": "≥ 0.6"}, {"smiles": "Cc1ccc(COC(CO[C@@H]2CCC[C@H](OCc3nc(-c4cccc(C)c4)oc3C)C2)C(=O)O)cc1", "note": "(stereo partly drawn) [Example 17, 3-[(1R,3S)-3-(5-Methyl-2-m-tolyloxazol-4-ylmethoxy)cyclohexyloxy]-2-(4-methyl-benzyloxy)propanoic acid]", "EC50": "≥ 0.6"}, {"smiles": "Cc1cccc(-c2nc(CO[C@H]3CCC[C@@H](OCC(OCc4cc(C)ccc4C)C(=O)O)C3)c(C)o2)c1", "note": "(stereo partly drawn) [Example 16, 3-[(1R,3S)-3-(5-Methyl-2-m-tolyloxazol-4-ylmethoxy)cyclohexyloxy]-2-(2,5-dimethylbenzyloxy)propanoic acid]", "EC50": "≥ 0.6"}, {"smiles": "CCCOC(CO[C@@H]1CCC[C@H](OCc2nc(-c3c(C)cccc3C)oc2CC)C1)C(=O)O", "note": "(stereo partly drawn) [Example 56, 3-{(1R,3S)-3-[5-Ethyl-2-(2,6-dimethylphenyl)oxazol-4-ylmethoxy]cyclohexyloxy}-2-propoxypropionic acid]", "EC50": "≥ 0.6"}, {"smiles": "CCOC(CO[C@@H]1CCC[C@H](OCc2nc(-c3cccc(OC)c3)oc2C)C1)C(=O)O", "note": "(stereo partly drawn) [Example 72, 2-Ethoxy-3-{(1R,3S)-3-[5-methyl-2-(3-methoxyphenyl)oxazol-4-ylmethoxy]cyclo-hexyloxy}propionic acid]", "EC50": "≥ 0.6"}, {"smiles": "CCOC(CO[C@@H]1CCC[C@H](OCc2nc(-c3ccc(C(F)(F)F)cc3)oc2C)C1)C(=O)O", "note": "(stereo partly drawn) [Example 59, 2-Ethoxy-3-{(1R,3S)-3-[5-methyl-2-(4-trifluoromethylphenyl)oxazol-4-ylmethoxy]-cyclohexyloxy}propionic acid]", "EC50": "≥ 0.6"}, {"smiles": "CCCOC(CO[C@@H]1CCC[C@H](OCc2nc(-c3cccc(OC(F)(F)F)c3)oc2C)C1)C(=O)O", "note": "(stereo partly drawn) [Example 44, 3-{(1R,3S)-3-[5-Methyl-2-(3-trifluoromethoxyphenyl)oxazol-4-ylmethoxy]cyclo-hexyloxy}-2-propoxypropionic acid]", "EC50": "≥ 0.6"}, {"smiles": "CCCOC(CO[C@@H]1CCC[C@H](OCc2nc(-c3ccccc3C(F)(F)F)oc2C)C1)C(=O)O", "note": "(stereo partly drawn) [Example 50, 3-{(1R,3S)-3-[5-Methyl-2-(2-trifluoromethylphenyl)oxazol-4-ylmethoxy]cyclohexyl-oxy}-2-propoxypropionic acid]", "EC50": "≥ 0.6"}, {"smiles": "Cc1cccc(-c2nc(CO[C@H]3CCC[C@@H](OCC(OCc4ccc(C(F)(F)F)cc4)C(=O)O)C3)c(C)o2)c1", "note": "(stereo partly drawn) [Example 13, 3-[(1R,3S)-3-(5-Methyl-2-m-tolyloxazol-4-ylmethoxy)cyclohexyloxy]-2-(4-trifluoro-methylbenzyloxy)propanoic acid]", "EC50": "≥ 0.6"}, {"smiles": "CCC(CCO[C@@H]1CCC[C@H](OCc2nc(-c3ccc(F)cc3)oc2C)C1)C(=O)O", "note": "(stereo partly drawn) [Example 1, 2-Ethyl-4{(1R,3S)-3-[2-(4-fluorophenyl)-5-methyloxazol-4-ylmethoxy]-cyclohexyloxy}butanoic acid]", "EC50": "≥ 0.6"}]}]}
